Laboratory results reported in patent US8445546B2, “Electrokinetically-altered fluids comprising charge-stabilized gas-containing nanostructures” (Revalesio Corporation, priority 2006, dated 2013).
For at least one compound, name, drawing or mass did not settle the structure.

Tested on: ovalbumin sensitization model
Test: Ovalbumin sensitization model with Budesonide (allergic asthma)
Format: in vivo, Brown Norway rat
Conditions: for blood level of eotaxin: 6 and 24 hours post challenge

CCCC1O[C@@H]2C[C@H]3[C@@H]4CCC5=CC(=O)C=C[C@]5(C)[C@H]4[C@@H](O)C[C@]3(C)[C@]2(C(=O)CO)O1 (stereo partly drawn) [Budesonide] was tested, and the “blood level of eotaxin” value (Budesonide 250 ug/kg) was “only had a notable effect at the later time point”, the “blood level of eotaxin” value (Budesonide 750 ug/kg) was “reduced the blood eotaxin levels” and the “total eosinophil count relative to normal saline alone” value (blood after ovalbumin challenge, Budesonide 750 μg/Kg, nebulized 7 days) was “reduced the total eosinophil count”. For the same compound, the Eosinophil % (blood after ovalbumin challenge, Budesonide 750 ug/kg) was “did not have a significant effect on Eosinophil % count”, the tidal volume (immediately after the challenge, Budesonide 500 and 750 ug/kg) was “no change in tidal volumes” and the Penh values (immediately after the challenge, Budesonide 500 and 750 ug/kg alone or with test fluids) was “failed to significantly affect the Penh values”.
